Molecules are shown by their SMILES. Values after ≈ are worked out from the molar mass of the structure shown.

A short description of this data set: physchem. The note with it: pH 6.5, aqueous buffer.

In the case of `COC(=O)C1=C(C)NC(C)=C(C(=O)OC)C1c1ccccc1[N+](=O)[O-]` [Drug 4, nifedipine], the concentration in solution (solubility) was 26 µg/mL (≈ 75.1 µM).

In general, solubility refers to the dissolved amount per volume that the medium holds. Read a low solubility as a poorly soluble substance.

The values above are taken from patent US20030086972A1, “Hydrogel-driven drug dosage form” (priority 2000, published 2003).
